Test results reported in doi:10.1101/2022.03.07.483334.
Results are given in words; binding and its absence hold for the method and conditions named. In cells and extracts the contact can be indirect. Some binding calls cover weakened binding; strength is not graded here.

Amino acid sequences for entries named in this document (tags omitted). A change or cut given only in a name is not applied to a line headed by its entry. Chains listed by the source or under a name are the forms on record and can include a tag or linker.
UniProt P15976: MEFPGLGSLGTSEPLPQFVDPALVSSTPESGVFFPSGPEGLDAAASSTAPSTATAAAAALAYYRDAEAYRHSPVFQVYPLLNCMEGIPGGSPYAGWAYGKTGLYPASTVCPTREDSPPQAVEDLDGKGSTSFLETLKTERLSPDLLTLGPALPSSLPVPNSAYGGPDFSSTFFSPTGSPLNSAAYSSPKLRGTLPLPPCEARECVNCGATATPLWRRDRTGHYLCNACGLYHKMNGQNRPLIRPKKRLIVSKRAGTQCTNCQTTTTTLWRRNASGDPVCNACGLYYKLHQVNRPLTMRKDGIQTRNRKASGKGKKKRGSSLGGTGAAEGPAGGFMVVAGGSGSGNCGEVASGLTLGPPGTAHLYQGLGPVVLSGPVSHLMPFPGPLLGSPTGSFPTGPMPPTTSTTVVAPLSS
RUNX1C (in CMK cells, co-precipitated with HA-GATA1/GATA1s) (Q01196-8, form named): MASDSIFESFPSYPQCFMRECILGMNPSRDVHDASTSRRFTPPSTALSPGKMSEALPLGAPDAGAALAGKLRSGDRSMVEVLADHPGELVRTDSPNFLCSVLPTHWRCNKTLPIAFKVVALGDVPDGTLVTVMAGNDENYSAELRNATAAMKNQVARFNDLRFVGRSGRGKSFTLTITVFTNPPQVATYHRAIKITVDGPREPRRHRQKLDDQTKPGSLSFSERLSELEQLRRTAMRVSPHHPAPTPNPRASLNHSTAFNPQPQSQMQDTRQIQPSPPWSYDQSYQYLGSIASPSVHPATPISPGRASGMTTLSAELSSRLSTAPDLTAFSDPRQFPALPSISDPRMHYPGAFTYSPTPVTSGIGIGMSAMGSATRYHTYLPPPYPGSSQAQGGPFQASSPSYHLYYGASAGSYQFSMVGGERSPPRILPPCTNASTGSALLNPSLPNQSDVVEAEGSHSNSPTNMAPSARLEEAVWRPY

Target: HA-tagged GATA1 (doxycycline-inducible, in CMK cells) (UniProt P15976)
Experiment: co-IP

binding: binds
Substance: RUNX1C (in CMK cells, co-precipitated with HA-GATA1/GATA1s) (from UniProt Q01196-8 1-480)
